Laboratory results taken from US11185100B2 (priority 2014, dated 2021).

By UniProt entry, the sequences of proteins in these tests, tags left out. Residues count along the entry.
UniProt E3UMS2, 1-296: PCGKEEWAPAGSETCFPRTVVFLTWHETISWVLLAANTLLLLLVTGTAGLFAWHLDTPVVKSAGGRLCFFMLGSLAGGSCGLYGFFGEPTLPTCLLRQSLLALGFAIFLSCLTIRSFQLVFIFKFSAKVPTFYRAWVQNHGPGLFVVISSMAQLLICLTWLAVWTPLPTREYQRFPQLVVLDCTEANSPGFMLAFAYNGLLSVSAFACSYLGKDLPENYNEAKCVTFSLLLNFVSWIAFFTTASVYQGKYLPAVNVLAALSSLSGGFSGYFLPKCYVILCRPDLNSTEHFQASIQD

Molecular target: cat T1R1/T1R3 receptor (Felis catus, UniProt E3UMS2)

Structure (SMILES): CC(O)C(=O)Nc1nc2c(ncn2[C@@H]2O[C@H](COP(=O)(O)O)[C@@H](O)[C@H]2O)c(=O)[nH]1 (some centres unmarked)
- Activity: active
- Max resp. (ΔF/F): 1.3600 ΔF/F
- Max. resp. % of IMP: 140.5 % of IMP
- Threshold: 0.025 mM
- EC50 (read-out: EC50- with Ala): 100 µM

The structures given here were assigned with low confidence; some may be wrong.
